{"source": "paper PMC9500407", "about": "“Quantifying the transport of biologics across intestinal barrier models in real-time by fluorescent imaging” (Frontiers in Bioengineering and Biotechnology, 2022)", "key": {"[1]": {"tested_on": "Caco-2:HT29-MTX E12 coculture tubules (chip)", "experiment": "Lucifer Yellow leakage after drug exposure, chip coculture", "settings": "100 µM LY co-applied, after 2 h of exposure to 10 µM drug"}, "[2]": {"settings": "cited from earlier work", "excerpt": "page 17: Supplementary Table 5. Direct statistical comparison of drug transport in Transwells, mono-and coculture tubules of 12 model drugs using an unpaired t-test."}, "[3]": {"tested_on": "Caco-2 monolayers (Transwell)", "experiment": "Lucifer Yellow leakage after drug exposure, Transwell", "settings": "100 µM LY co-applied, after 2 h of exposure to 10 µM drug, Caco-2 Transwell"}, "[4]": {"tested_on": "Caco-2 monoculture tubules (chip)", "experiment": "Lucifer Yellow leakage after drug exposure, chip monoculture", "settings": "100 µM LY co-applied, after 2 h of exposure to 10 µM drug"}}, "data": [{"smiles": "CC(C)NCC(O)COc1ccc(CC(N)=O)cc1", "note": "(stereo not shown) [Atenolol]", "values": [{"measurement": "Lucifer Yellow leakage (%) Chip Caco-2:HT29-MTX E12", "setting": "[1]", "result": 0.01, "unit": "%"}, {"measurement": "Transport route", "setting": "[2]", "result": "Paracellular"}, {"measurement": "Lucifer Yellow leakage (%) Transwell", "setting": "[3]", "result": 0.02, "unit": "%"}, {"measurement": "Lucifer Yellow leakage (%) Chip Caco-2", "setting": "[4]", "result": 0.02, "unit": "%"}]}]}
